The assay has as its target Flag-mutant PTP4A1 (D72A/C104S in the text; D74A/C104S in the legend) (UniProt Q93096). Kind of assay: co-IP; HEK293T cells co-transfected; lysates immunoprecipitated with anti-Flag antibody overnight at 4 °C, protein G-Sepharose beads 2 h at 4 °C; Western blot. In general terms: A western blot detects proteins with antibodies after separation by electrophoresis.

Protein sequences, listed by entry. Tags and fused reporters are not part of them. Lines headed by an entry give the natural chain unless they say otherwise; changes in a name come on top.
UniProt Q93096: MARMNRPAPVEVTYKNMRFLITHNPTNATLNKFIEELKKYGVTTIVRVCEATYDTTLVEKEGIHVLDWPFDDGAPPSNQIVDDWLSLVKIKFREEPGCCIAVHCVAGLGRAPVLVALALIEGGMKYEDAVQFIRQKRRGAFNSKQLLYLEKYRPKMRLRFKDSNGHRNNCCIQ

These are yes or no findings as the source states them, for the method shown. Binding seen in cells or lysates may run through a third protein. Sequences can lack the tags named with a protein.

B1: HA-CREBH(F), the inactive form of cyclic adenosine monophosphate-responsive element-binding protein H (protein, UniProt Q68CJ9 1-461)
chain: MNTDLAAGKMASAACSMDPIDSFELLDLLFDRQDGILRHVELGEGWGHVKDQQVLPNPDSDDFLSSILGSGDSLPSSPLWSPEGSDSGISEDLPSDPQDTPPRSGPATSPAGCHPAQPGKGPCLSYHPGNSCSTTTPGPVIQVPEASVTIDLEMWSPGGRICAEKPADPVDLSPRCNLTVKDLLLSGSSGDLQQHHLGASYLLRPGAGHCQELVLTEDEKKLLAKEGITLPTQLPLTKYEERVLKKIRRKIRNKQSAQESRKKKKEYIDGLETRMSACTAQNQELQRKVLHLEKQNLSLLEQLKKLQAIVVQSTSKSAQTGTCVAVLLLSFALIILPSISPFGPNKTESPGDFAPVRVFSRTLHNDAASRVAADAVPGSEAPGPRPEADTTREESPGSPGADWGFQDTANLTNSTEELDNATLVLRNATEGLGQVALLDWVAPGPSTGSGRAGLEAAGDEL
For B1, the binding entry is given as “no binding”.

The values above are taken from PMC9925322.
